Experimental data: PubChem BioAssay AID1508588 (Peter MacCallum Cancer Centre, 2020)
Here is one part, drawn at random, of about 18,000 deposited reagents. In the full data, 790 (4.4%) got an active call. 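Calls rest on a combination of fold-change classes in drug and vehicle arms, not all shown here.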 A number with no mark means an inactive call. No sequences are given here.

- Test: 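Which gene losses make BRAF-mutant melanoma cells more responsive to vemurafenib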 (primary screen)
- Cells: human WM266.4 melanoma cells (BRAF V600 mutant)
- Knock-down reagent: siRNA pool against human genes, 40 nM
- Timing: 96 h from transfection to read-out
- Treatment: vemurafenib 300 nM (about IC25), added 48 h after transfection, for 48 h; comparison arm got DMSO vehicle only
- Measurement: 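Cell gain (DAPI nuclei at end minus before drug, mean of two replicates) and medium lactate by absorbance per cell, both as ratio to non-targeting siRNA, also grouped into fold-change classes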
- Reading the numbers: cell gain with vemurafenib: higher = more cell gain than with non-targeting siRNA; lactate per cell with vemurafenib: higher = more lactate made per cell
- Call rule: 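a knock-down counts as enhancing when its fold-change classes with vehicle and with vemurafenib, taken together, show a stronger drug effect on cell gain or lactate per cell; exact class pairs not stated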
- Calls: active = enhances vemurafenib effect; inactive = no enhancement seen

For ACP6 (acid phosphatase 6, lysophosphatidic), how do the results read?
cell gain with vemurafenib: 1.12; lactate per cell with vemurafenib: 1.09

What did the screen give for LILRB4 (leukocyte immunoglobulin like receptor B4)?
cell gain with vemurafenib: 0.47; lactate per cell with vemurafenib: 0.79

For HOXD12 (homeobox D12), what was measured?
cell gain with vemurafenib: 0.21; lactate per cell with vemurafenib: 0.73

What did the screen give for HOMEZ (homeobox and leucine zipper encoding)?
cell gain with vemurafenib: 0.54; lactate per cell with vemurafenib: 1.27

Which result is listed for ENPP1 (ectonucleotide pyrophosphatase/phosphodiesterase 1)?
cell gain with vemurafenib: 0.27; lactate per cell with vemurafenib: 0.58

What did the screen give for ANKS3 (ankyrin repeat and sterile alpha motif domain containing 3)?
cell gain with vemurafenib: 0.57; lactate per cell with vemurafenib: 1.21

Which result is listed for BAGE (B melanoma antigen)?
cell gain with vemurafenib: 0.83; lactate per cell with vemurafenib: 0.6

What did the screen give for TPSG1 (tryptase gamma 1)?
cell gain with vemurafenib: 1.41; lactate per cell with vemurafenib: 0.4

How did the screen score DDX1 (DEAD-box helicase 1)?
cell gain with vemurafenib: 0.28; lactate per cell with vemurafenib: 1.25

For DCD (dermcidin), how do the results read?
cell gain with vemurafenib: 0.27; lactate per cell with vemurafenib: 0.9

For SOX5 (SRY-box transcription factor 5), what does the deposit list?
cell gain with vemurafenib: 0.26; lactate per cell with vemurafenib: 1.84

What is on record for RBM34 (RNA binding motif protein 34)?
cell gain with vemurafenib: 0.59; lactate per cell with vemurafenib: 0.44

For MYEOV (myeloma overexpressed), how do the results read?
cell gain with vemurafenib: 0.51; lactate per cell with vemurafenib: 0.54

How did the screen score PRMT2 (protein arginine methyltransferase 2)?
cell gain with vemurafenib: 0.31; lactate per cell with vemurafenib: 0.84

With MS4A5 (membrane spanning 4-domains A5), what does the deposit list?
cell gain with vemurafenib: 0.39; lactate per cell with vemurafenib: 0.67

For RHOT2 (ras homolog family member T2), how do the results read?
cell gain with vemurafenib: 0.73; lactate per cell with vemurafenib: 0.95

Which result is listed for CIMIP7 (ciliary microtubule inner protein 7)?
cell gain with vemurafenib: 0.82; lactate per cell with vemurafenib: 0.65

What did the screen give for SCGB1D2 (secretoglobin family 1D member 2)?
cell gain with vemurafenib: 0.37; lactate per cell with vemurafenib: 1.02

With SUPT16H (SPT16 homolog, facilitates chromatin remodeling subunit), what does the deposit list?
cell gain with vemurafenib: 0.66 (active); lactate per cell with vemurafenib: 0.69

Which result is listed for B4GALT2 (beta-1,4-galactosyltransferase 2)?
cell gain with vemurafenib: 0.61; lactate per cell with vemurafenib: 1.09

For FRY (FRY microtubule binding protein), how do the results read?
cell gain with vemurafenib: 0.87; lactate per cell with vemurafenib: 0.98

For PPM1K (protein phosphatase, Mg2+/Mn2+ dependent 1K), what was measured?
cell gain with vemurafenib: 1.05; lactate per cell with vemurafenib: 0.7

For CA8 (carbonic anhydrase 8 (inactive)), what does the deposit list?
cell gain with vemurafenib: 0.86; lactate per cell with vemurafenib: 1.11

For SLC16A11, what was measured?
cell gain with vemurafenib: 0.62; lactate per cell with vemurafenib: 1.72

With FKBP10 (FKBP prolyl isomerase 10), what was measured?
cell gain with vemurafenib: 0.66; lactate per cell with vemurafenib: 0.55

What is on record for KRTAP5-3 (keratin associated protein 5-3)?
cell gain with vemurafenib: 0.53; lactate per cell with vemurafenib: 0.38

What did the screen give for CRYGB (crystallin gamma B)?
cell gain with vemurafenib: 0.86; lactate per cell with vemurafenib: 0.84

For RAB18 (RAB18, member RAS oncogene family), how do the results read?
cell gain with vemurafenib: 0.86; lactate per cell with vemurafenib: 1.02

For ZNF816 (zinc finger protein 816), how do the results read?
cell gain with vemurafenib: 0.95; lactate per cell with vemurafenib: 0.98

Which result is listed for TAF5 (TATA-box binding protein associated factor 5)?
cell gain with vemurafenib: 0.56; lactate per cell with vemurafenib: 0.9

With TMEM139 (transmembrane protein 139), how do the results read?
cell gain with vemurafenib: 0.25; lactate per cell with vemurafenib: 1.23

What did the screen give for SERF1A (small EDRK-rich factor 1A)?
cell gain with vemurafenib: 0.47; lactate per cell with vemurafenib: 1.42

For SLC44A5, how do the results read?
cell gain with vemurafenib: 0.7; lactate per cell with vemurafenib: 0.55

For DPYS (dihydropyrimidinase), what does the deposit list?
cell gain with vemurafenib: 0.58; lactate per cell with vemurafenib: 0.73

For HAPLN3 (hyaluronan and proteoglycan link protein 3), what was measured?
cell gain with vemurafenib: 0.39; lactate per cell with vemurafenib: 1.42

For LARP6 (La ribonucleoprotein 6, translational regulator), what does the deposit list?
cell gain with vemurafenib: 0.4; lactate per cell with vemurafenib: 2.57

Which result is listed for CXCR1 (C-X-C motif chemokine receptor 1)?
cell gain with vemurafenib: 0.13; lactate per cell with vemurafenib: 1.19

What did the screen give for NARS2 (asparaginyl-tRNA synthetase 2, mitochondrial)?
cell gain with vemurafenib: 0.36; lactate per cell with vemurafenib: 1.59

How did the screen score RTF1 (RTF1 homolog, Paf1/RNA polymerase II complex component)?
cell gain with vemurafenib: 0.47; lactate per cell with vemurafenib: 1.07

For TAC3 (tachykinin precursor 3), what does the deposit list?
cell gain with vemurafenib: 0.77; lactate per cell with vemurafenib: 0.81

With EI24 (EI24 autophagy associated transmembrane protein), what does the deposit list?
cell gain with vemurafenib: 0.7; lactate per cell with vemurafenib: 1.27

What is on record for LGALS4 (galectin 4)?
cell gain with vemurafenib: 1.05; lactate per cell with vemurafenib: 0.92

For LPGAT1 (lysophosphatidylglycerol acyltransferase 1), what does the deposit list?
cell gain with vemurafenib: 0.87; lactate per cell with vemurafenib: 0.88

With DNM2 (dynamin 2), what does the deposit list?
cell gain with vemurafenib: 0.59; lactate per cell with vemurafenib: 1.21

With LCE3A (late cornified envelope 3A), what was measured?
cell gain with vemurafenib: -0.02; lactate per cell with vemurafenib: 2.16

For LINC01559 (long independently transcribed non-coding RNA 1559), what was measured?
cell gain with vemurafenib: 1.09; lactate per cell with vemurafenib: 0.38

For CASTOR3P (CASTOR family member 3, pseudogene), how do the results read?
cell gain with vemurafenib: 0.7; lactate per cell with vemurafenib: 0.91

What is on record for SGO1 (shugoshin 1)?
cell gain with vemurafenib: 0.03; lactate per cell with vemurafenib: 1.6

With HBG1 (hemoglobin subunit gamma 1), how do the results read?
cell gain with vemurafenib: 0.19; lactate per cell with vemurafenib: 1.21

With TM6SF2 (transmembrane 6 superfamily member 2), what was measured?
cell gain with vemurafenib: 0.78; lactate per cell with vemurafenib: 0.86

Which result is listed for DNAJC28 (DnaJ heat shock protein family (Hsp40) member C28)?
cell gain with vemurafenib: 0.78; lactate per cell with vemurafenib: 0.85

Which result is listed for RTL9 (retrotransposon Gag like 9)?
cell gain with vemurafenib: 0.75; lactate per cell with vemurafenib: 0.71
